Test results reported in the supplement of paper PMC5949888.
Most values lie at the floor of the assay. Slopes are relative: functional sequences can read slightly below zero.

Test system: Saccharomyces cerevisiae PS128 hsf1 delta, HSF1(1-493) fusion
Assay: growth estimate (transactivation domain function in HSF1 fusion, heat-shock survival) (a.u. (slope of normalised read count over time)); higher = stronger growth at 37°C, i.e. more transactivation activity
Details: library: random library

Row | Substance | growth estimate
1 | PALPSIVIGPANIIYSTNTH | < -0.25
2 | FQSSVKSCVPSVSPRGATVA | < -0.25
3 | TPDGQMLCLTRARI | < -0.25
4 | ANLPQYT | < -0.25
5 | NRQDTSASRIPCNIG | < -0.25
6 | PKFKSILRMVNINRRELKIH | < -0.25
7 | LHTAHYHDWRAGTGIMWTG | < -0.25
8 | GGPA | < -0.25
9 | DKNIGQAGRGGIRGVGM | < -0.25
10 | ISYAKRYSESR | < -0.25
11 | SGKLWI | < -0.25
12 | QDPTPL | -0.243
13 | IHTSNDHGCDVASEKGVPRL | < -0.25
14 | CRQNGAVLTTNSNGVELPQS | < -0.25
15 | RLASEPYIRNGISAKRTGCA | < -0.25
16 | LRDCL | < -0.25
17 | HRPTHSGPGVL | < -0.25
18 | VHTKDRAVGSDRGCERHGDT | < -0.25
19 | ILKVSDGWFIVALQAQCKLT | < -0.25
20 | TLPKCCLYLNGIYITRAGRE | < -0.25
21 | VTLNRD | < -0.25
22 | GDVRYLIFY | < -0.25
23 | IHVSSPPAIGVGTRIG | < -0.25
24 | GIRVAQPIQGVMLPGRTWEH | < -0.25
25 | GEHNKCGWRELAGRQLSFAE | < -0.25

Two records drawn at random from those above, as already listed:
Row | Substance | growth estimate
17 | HRPTHSGPGVL | < -0.25
13 | IHTSNDHGCDVASEKGVPRL | < -0.25

Further results.

Row | Substance | growth estimate
26 | VCITTLQGLMPDGAVEGR | < -0.25
27 | GPGTGICFGYHAGLLPDE | < -0.25
28 | WRKISLLTPLSQVVGGGCPG | < -0.25
29 | CTSSRKTYAIHYSHSFPDCV | < -0.25
30 | LFMVANIYVTSPAVLPNALD | < -0.25
31 | VLSWERYTLHNLCSLARA | < -0.25
32 | GQPRRVVEVVWPSQHAIKTT | < -0.25
33 | CCVFPTYLKRR | < -0.25
34 | TGQLRPVQN | < -0.25
35 | EPLPGGRI | < -0.25
36 | QYPLGSQRALLQYGLFLQNE | < -0.25
37 | DRRPHNGSGHLRVSE | < -0.25
38 | RPGVSV | -0.151
39 | GLCDQCRRQFEALGWDAL | -0.245
40 | NLTGTTAPPRAAVDVHDRQC | < -0.25
41 | GHIATTRRRQDYVPCSKESF | < -0.25
42 | TVFTPECQVSLCSDDREVKH | < -0.25
43 | LPGWLCQLQWDLAVRRR | < -0.25
44 | SGLHSSRTLP | < -0.25
45 | NSSHGGSKRLFKCNAS | < -0.25
46 | TRHFTAMRLVPWKLTAERRA | < -0.25
47 | QYSELTSGEVSPARWEYLT | < -0.25
48 | LCLIGFVLDCL | < -0.25
49 | ILVILGHR | -0.243
50 | LRDSFKTFSVWRLSVSQSLT | < -0.25

Given tab-delimited: entries from further up.
Row	Substance	growth estimate
31	VLSWERYTLHNLCSLARA	< -0.25
32	GQPRRVVEVVWPSQHAIKTT	< -0.25
33	CCVFPTYLKRR	< -0.25
34	TGQLRPVQN	< -0.25

The listing continues:

Row | Substance | growth estimate
51 | PYPGERAEHSG | < -0.25
52 | VVVPTP | < -0.25
53 | HKYFACWGFFKR | < -0.25
54 | CAVVSGLYIDWLNVDPGQEG | < -0.25
55 | SRRLARIDCSDSL | < -0.25
56 | HSSCRSDASLAKP | < -0.25
57 | TRGRGNRGGLRAWREIRHPS | < -0.25
58 | NYGRGRAYGKLRCNK | < -0.25
59 | GHLEIAFGGARLRASFSIYE | < -0.25
60 | FRSIHSKSLEAAHRSSVGWP | -0.243
61 | AYHRSVLCGRRESYSNI | < -0.25
62 | ARCISKPY | < -0.25
63 | QTFASWRRWTCRGLIFYRLG | < -0.25
64 | NRMVLGWS | < -0.25
65 | LSRSTRIQSIRGG | < -0.25
66 | ACRVVCRYGSGGCSSPVSHG | < -0.25
67 | LECRVMTRRTRVRHRAFAKE | < -0.25
68 | HSEGTAPWGTCSYFPFEFFG | < -0.25
69 | GCLLRSSLCHMGSVLDERFC | < -0.25
70 | CRQSLSRVFAGPVL | < -0.25
71 | IPERASREQMFWAADVGRLN | -0.245
72 | ILLINKTNRRTFDGLQ | < -0.25
73 | QELRR | < -0.25
74 | YHCILFQLFYLSET | < -0.25
75 | TRVSSCKIAIWPRSSKFKQP | < -0.25

Row | Substance | growth estimate
76 | FMGAAGWSTTSGGLVTYSP | < -0.25
77 | KLV | < -0.25
78 | AVRIRGSLATSSLVE | < -0.25
79 | NRGVSQAGEIHTGER | < -0.25
80 | RFNDGLNQRELQLFVRRQAL | -0.231
81 | MAVVTLGRHLNLRLHQRG | < -0.25
82 | TNE | < -0.25
83 | VHSLHRDRSGVTPGGSSFLY | < -0.25
84 | NFASTRSGKLPRHYSERRRV | < -0.25
85 | IESVELRN | < -0.25
86 | RDRRQS | < -0.25
87 | EYVRFRSLIKRDYVMNACFN | < -0.25
88 | SKFCDVSMCRHWVMFA | < -0.25
89 | PLCDVNRWEEVPNKSVSDPL | < -0.25
90 | ETVLELRECRS | < -0.25
91 | RMGLFGIYGSVGIYIAVYLS | 0.001
92 | VLARHSSAHPSCKARCSRKY | < -0.25
93 | LQCSNFSVVQQS | < -0.25
94 | PWGSG | < -0.25
95 | RVGIHKQG | < -0.25
96 | RRGGLTDL | < -0.25
97 | TGSMWPERPMVSRVET | < -0.25
98 | VRE | < -0.25
99 | MPVVLVNSETLSCQYGRVIA | < -0.25
100 | DRHILPGERTHWMIWRIPSG | < -0.25
